Reference: patent publication US20030022345A1 (Human Genome Sciences, published 2003)

Protein sequences, listed by entry. Tags and fused reporters are not part of them. Residues count along the entry.
UniProt Q14152, 2-1382: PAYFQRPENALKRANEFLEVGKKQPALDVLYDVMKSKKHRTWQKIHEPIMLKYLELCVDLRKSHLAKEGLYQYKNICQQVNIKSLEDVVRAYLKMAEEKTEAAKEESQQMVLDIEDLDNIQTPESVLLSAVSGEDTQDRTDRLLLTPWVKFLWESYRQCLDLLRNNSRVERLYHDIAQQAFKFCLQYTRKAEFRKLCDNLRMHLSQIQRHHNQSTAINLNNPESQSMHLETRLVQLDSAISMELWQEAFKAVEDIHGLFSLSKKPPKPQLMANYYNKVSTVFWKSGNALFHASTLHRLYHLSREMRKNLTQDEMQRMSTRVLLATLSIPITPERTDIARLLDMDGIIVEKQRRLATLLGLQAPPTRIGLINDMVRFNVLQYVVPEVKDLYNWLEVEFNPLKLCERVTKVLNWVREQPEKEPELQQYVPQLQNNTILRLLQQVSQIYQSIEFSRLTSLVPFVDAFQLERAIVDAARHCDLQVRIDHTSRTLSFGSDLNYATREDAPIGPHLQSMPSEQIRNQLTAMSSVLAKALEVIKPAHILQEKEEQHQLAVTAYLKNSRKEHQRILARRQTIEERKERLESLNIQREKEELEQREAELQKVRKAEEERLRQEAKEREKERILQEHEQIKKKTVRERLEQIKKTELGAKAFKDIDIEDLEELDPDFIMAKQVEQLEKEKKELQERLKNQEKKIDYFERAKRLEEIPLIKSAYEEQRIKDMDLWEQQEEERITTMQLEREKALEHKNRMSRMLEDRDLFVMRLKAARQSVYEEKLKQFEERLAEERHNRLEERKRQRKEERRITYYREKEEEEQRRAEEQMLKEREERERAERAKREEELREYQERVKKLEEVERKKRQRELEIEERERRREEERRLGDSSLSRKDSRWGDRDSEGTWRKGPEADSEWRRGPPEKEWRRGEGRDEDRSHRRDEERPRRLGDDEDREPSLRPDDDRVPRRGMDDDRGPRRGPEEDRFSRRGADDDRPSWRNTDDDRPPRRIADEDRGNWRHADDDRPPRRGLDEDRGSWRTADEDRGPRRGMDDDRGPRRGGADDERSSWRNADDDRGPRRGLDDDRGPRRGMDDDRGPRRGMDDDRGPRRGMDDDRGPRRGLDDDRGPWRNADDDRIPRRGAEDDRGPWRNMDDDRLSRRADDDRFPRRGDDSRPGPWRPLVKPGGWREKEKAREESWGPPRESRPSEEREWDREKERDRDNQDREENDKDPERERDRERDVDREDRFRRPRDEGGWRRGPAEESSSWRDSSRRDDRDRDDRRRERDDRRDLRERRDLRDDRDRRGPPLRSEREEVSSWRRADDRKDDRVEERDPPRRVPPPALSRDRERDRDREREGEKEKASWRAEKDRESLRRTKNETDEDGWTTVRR

Target: T1, p170 subunit of eIF3 (170 kDa protein in HeLa cytoplasmic extract) (human (HeLa cells), UniProt Q14152 2-1382)
T1 construct: Denatured, on a blot after SDS-PAGE; also called pl70
Experiment: Far Western, 32P-labeled probe on blotted HeLa cytoplasmic extract
Description: The membranes were blocked overnight with 5% milk in HBB buffer (25 mM HEPES-KOH, pH 7.5, 25 mM NaCl, 5 mM MgCl, 1 mM DTT), and incubated 4 hours in hybridization buffer (20 mM HEPES-KOH pH 7.5, 75 mM KCl, 2.5 mM MgCl , 0.1 mM EDTA, 1 mM DTT, 0.1% NP-40, 1% milk) containing the ³²P-labeled FLAG-HMK- or GST-FLAG-HMK-hPrt1 at 250,000 cpm/ml and unlabeled purified GST at 1 μg/ml. The membranes were washed 3 times with hybridization buffer and processed for autoradiography.
To further substantiate the finding that hPrt1 is a subunit of human eIF3, we examined the possibility that hPrt1 interacts directly with one or more eIF3 subunits. To this end, hPrt1 was tagged with a FLAG peptide linked to a heart muscle kinase site (FLAG-HMK) or fused to a glutathione-S-transferase-FLAG-HMK sequence (GST-FLAG-HMK). We opted to use fragments of hPrt1 rather than the full length protein due to the low yield and extensive degradation of full length hPrt1 in E. coli. The proteins were purified using a FLAG antibody or glutathione-sepharose resin, and were ³²P-labeled with heart muscle kinase. The labeled proteins were then used to detect interacting proteins by the Far Western assay with HeLa cytoplasmic extracts, rabbit reticulocyte lysate and different preparations of eIF3. […] The hPrt1 probes reacted with a 140 kDa protein in eIF3 preparation 1 and 140 and 170 kDa polypeptides in eIF3 preparation 2. […]

B1: N90146 (FLAG-HMK fusion of amino acids 147-873 of hPrt1) (other)
chain: DADEPSFSDPEDFVDDVSEEELLGDVLKDRPQEADGIDSVIVVDNVPQVGPDRLEKLKNVIHKIFSKFGKITNDFYPEEDGKTKGYIFLEYASPAHAVDAVKNADGYKLDKQHTFRVNLFTDFDKYMTISDEWDIPEKQPFKDLGNLRYWLEEAECRDQYSVIFESGDRTSIFWNDVKDPVSIEERARWTETYVRWSPKGTYLATFHQRGIALWGGEKFKQIQRFSHQGVQLIDFSPCERYLVTFSPLMDTQDDPQAIIIWDILTGHKKRGFHCESSAHWPIFKWSHDGKFFARMTLDTLSIYETPSMGLLDKKSLKISGIKDFSWSPGGNIIAFWVPEDKDIPARVTLMQLPTRQEIRVRNLFNVVDCKLHWQKNGDYLCVKVDRTPKGTQGVVTNFEIFRMREKQVPVDVVEMKETIIAFAWEPNGSKFAVLHGEAPRISVSFYHVKNNGKIELIKMFDKQQANTIFWSPQGQFVVLAGLRSMNGALAFVDTSDCTVMNIAEHYMASDVEWDPTGRYVVTSVSWWSHKVDNAYWLWTFQGRLLQKNNKDRFCQLLWRPRPPTLLSQEQIKQIKKDLKKYSKIFEQKDRLSQSKASKELVERRRTMMEDFRKYRKMAQELYMEQKNERLELRGGVDTDELDSNVDDWEEETIEFFVTEEIIPLGIRSDLEHCAQPCVLWSRGRPAGSRVTPASSLCSLALDCDCAWILPLRHIFVPFSPWCLQWGI
modifications: 32P-labeled with heart muscle kinase at the HMK site (as Far Western probe)
notes: also called FLAG-HMK N90146; hPrt1 N90146; not shown: FLAG-HMK leader of vector pAR90[59/69]
B1: binds.
